PubChem BioAssay AID1671190 (National Center for Advancing Translational Sciences (NCATS), 2021)
Screen size: about 580,000 compounds; about 6,100 (1.1%) were called active. The inconclusive results got no clear call from the source; some entries with a clear call stand among them for comparison. Calls follow the shape of the dose curve; as a rule, active = well fitted inhibition curve with a large enough effect; inconclusive = small, poorly fitted or top-dose-only effect, or another doubt; inactive = no such curve, though single readings can be large or run the other way. A potency beside an inconclusive call is a rough fit, not a confirmed value.

By UniProt entry, the sequences of proteins in these tests, tags left out.
UniProt P18054, whole entry, looked up: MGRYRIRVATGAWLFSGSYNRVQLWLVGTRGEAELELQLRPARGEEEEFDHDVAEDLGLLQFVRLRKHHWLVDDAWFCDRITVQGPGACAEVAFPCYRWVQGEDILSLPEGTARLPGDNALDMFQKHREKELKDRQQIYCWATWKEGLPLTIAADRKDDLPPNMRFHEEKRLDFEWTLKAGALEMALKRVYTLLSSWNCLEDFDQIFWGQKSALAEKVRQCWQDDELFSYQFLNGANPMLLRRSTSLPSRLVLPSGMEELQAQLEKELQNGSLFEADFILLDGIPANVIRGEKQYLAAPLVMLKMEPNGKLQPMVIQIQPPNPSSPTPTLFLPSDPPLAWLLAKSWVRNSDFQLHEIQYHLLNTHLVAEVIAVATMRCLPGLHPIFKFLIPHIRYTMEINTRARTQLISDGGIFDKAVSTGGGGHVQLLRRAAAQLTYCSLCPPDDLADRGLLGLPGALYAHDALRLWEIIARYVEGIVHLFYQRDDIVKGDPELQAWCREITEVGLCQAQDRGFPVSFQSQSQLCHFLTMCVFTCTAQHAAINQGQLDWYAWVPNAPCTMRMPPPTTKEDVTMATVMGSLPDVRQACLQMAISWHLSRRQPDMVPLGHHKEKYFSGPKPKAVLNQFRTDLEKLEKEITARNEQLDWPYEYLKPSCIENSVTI

target: Polyunsaturated fatty acid lipoxygenase ALOX12 (Homo sapiens) (UniProt P18054); experiment: Primary qHTS assay for inhibitors of human arachidonate 12S-lipoxygenase (ALOX12): Round 2; details: purified 12hLO, xylenol orange hydroperoxide absorbance; series mostly up to 108 µM
Outline: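 Purified human 12hLO (150 nM final) in 25 mM Hepes, 0.01% Triton X-100, pH 7.0 was preincubated 15 min at room temperature with compound. Then 40 uM arachidonic acid was added, 30 min. Hydroperoxide was read by Fe-XO absorbance ratio 573/405 nm.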
Potency is read from the fitted curve at half-maximal effect.

Structure (SMILES) | Potency
Cc1cc(NC(=O)CSc2nncn2-c2ccccc2)no1 | inactive
COc1cc(-c2coc3c(C(=O)NCc4ccc(C(F)(F)F)cc4)cccc23)ccc1O | inconclusive: 31.6 µM [inhibitor, partial curve, poor fit]
C/C(=N\Nc1ccccc1)c1cccc(N)c1 | inconclusive: 35.5 µM [inhibitor, partial curve, poor fit]
COc1ccc(NC(=O)C2Cc3c(-c4ccc(NC(C)=O)cc4)ccnc3O2)cn1 (stereo not drawn) | inconclusive: 6.31 µM [inhibitor, full curve, poor fit]
O=C(Nc1ccccc1F)C1CC2CCC1C2 (stereo not drawn) | inactive
CC(=O)N1CCC2(CC1)CN(C(=O)c1ccc3[nH]ccc3c1)Cc1ccccc1O2 | inconclusive: 0.891 µM [inhibitor, full curve, poor fit]
Cc1ccc2nc(-c3ccccc3)cc(C(=O)NCCN3CCOCC3)c2c1 | inactive
COc1ccc(C(=O)Nc2ccc3c(c2)OCCO3)cc1S(=O)(=O)N1CCOCC1 | inconclusive: 44.7 µM [inhibitor, partial curve, poor fit]
CC(=O)Nc1ccc(CNc2nc3cc(-c4ccccc4C)sc3c(=O)n2C)cc1 | inconclusive: 126 µM [inhibitor, single point]
COc1ccc(-c2cc(=O)n(-c3cccc(C)c3)[nH]2)cc1OC | inactive
N#C/C(=C\c1ccco1)C(=O)Nc1ccc(S(N)(=O)=O)cc1 | inconclusive: 100 µM [inhibitor, single point]
COc1ccccc1-c1nc(N(C)Cc2ccco2)c2ccccc2n1 | inconclusive: 50.1 µM [inhibitor, partial curve, poor fit]
COc1ccc(N2CCN(Cc3cc4c(cc3Br)OCCO4)CC2)cc1 | inactive
Cc1ccc(Oc2nc3c(c(=O)n(C)c(=O)n3C)n2Cc2ccc(F)cc2)cc1C | inactive
O=C(c1cc(C2CC2)nn1-c1ccccc1)N1CCN(c2ccc(O)cc2)CC1 | inconclusive: 79.4 µM [inhibitor, partial curve, poor fit]
CC(=O)NC(=S)Nc1cc(C(=O)O)ccc1Cl | inconclusive: 44.7 µM [inhibitor, partial curve, poor fit]
O=C(O)C1CNCCN(C(=O)c2nc3ccc(F)cc3[nH]2)C1 (stereo not drawn) | inactive
C=CCNc1nc(C(=O)OCC(=O)N(c2ccccc2)C(C)C)cs1 | inactive
Cc1c(Cl)cccc1Nc1ccccc1C(=O)O | inactive
CC(C)CCN1NC2(CCC(C(C)(C)C)CC2)NC1=S (stereo not drawn) | inconclusive: 79.4 µM [inhibitor, single point]
Cc1ccc(-n2c(-c3ccccc3)n[nH]c2=S)cc1 | inconclusive: 15.8 µM [inhibitor, full curve, poor fit]
CCOC(=O)N1CCN(C(=O)COC(=O)c2ccc(N(C)C)cc2)CC1 | inactive

Reprinted at random: two records from the list.
Structure (SMILES) | Potency
CCOC(=O)N1CCN(C(=O)COC(=O)c2ccc(N(C)C)cc2)CC1 | inactive
C=CCNc1nc(C(=O)OCC(=O)N(c2ccccc2)C(C)C)cs1 | inactive

Continuation.

Structure (SMILES) | Potency
CC(C)c1ccc(NC(=O)C(C)N2CCN(C(=O)c3ccco3)CC2)cc1 (stereo not drawn) | inactive
CC1=C(C(=O)Nc2ccccc2)C(c2cc(C)ccc2C)N2C(CC(=O)N3CCCC3)=CSC2=N1 (stereo not drawn) | inconclusive: 3.16 µM [inhibitor, full curve, poor fit]
COc1ccc(OC)c(CNc2ncnc3onc(C)c23)c1 | inactive
CCCCCn1c(CN2CCN(C(=O)OCC)CC2)nc2c1c(=O)[nH]c(=O)n2C | inconclusive: 39.8 µM [inhibitor, partial curve, poor fit]
CC(C)(N)C(=O)N1CCCC(N2CCN(c3ccc(F)cc3)CC2)C1 (stereo not drawn) | inconclusive: 12.6 µM [inhibitor, full curve, poor fit]
CCOC(=O)c1cc2c(=O)n3ccccc3nc2n(C(C)C)c1=NC(=O)c1c(-c2c(F)cccc2Cl)noc1C | inconclusive: 10 µM [inhibitor, full curve, poor fit]
O=C1Nc2ccccc2/C1=N\N=C\c1ccc(O)c(O)c1 | inconclusive: 12.6 µM [inhibitor, full curve, poor fit]
CN1C(=O)c2ccccc2Sc2ccc(NC(=O)N3CCN(c4cccc(Cl)c4)CC3)cc21 | inactive
C#CCNC(=O)C[C@@H]1O[C@H](CNC(=O)Nc2ccc(C)cc2)[C@@H](O)[C@H]1O | inactive
COc1ccc(NC(=O)Cn2cnc3c(nnn3Cc3ccc(C)cc3)c2=O)c(OC)c1 | inconclusive: 39.8 µM [inhibitor, partial curve, poor fit]
CN(C)c1ccc(C(=O)NCc2ccc3c(c2)CCN3C(=O)c2ccc(Cl)cc2)cc1 | inconclusive: 126 µM [inhibitor, partial curve, poor fit]
CCCN1CCS(=O)(=O)N(Cc2cn(Cc3ccc(C)cc3)nn2)C(C(=O)OC)C1 (stereo not drawn) | inconclusive: 25.1 µM [inhibitor, full curve]
CC(=O)c1ccc(-c2[nH]c3ccccc3c2CCN2C(=O)c3ccccc3C2=O)cc1 | inconclusive: 89.1 µM [inhibitor, single point]
COc1cccc(C(C)(O)c2nc(-c3ccc4c(c3)OCO4)cs2)c1 (stereo not drawn) | inconclusive: 89.1 µM [inhibitor, single point]
O=C(c1ccc2cc[nH]c2c1)N1CCC2(CC1)N=C(c1ccccc1)NO2 | inactive
CCn1c(O)c(C=Nc2ccccc2)n(-c2ccccc2)c1=S | inactive
Cc1ccc2c(CN3CCN(C(=O)c4ccco4)CC3)cc(=O)oc2c1C | inconclusive: 44.7 µM [inhibitor, partial curve, poor fit]
CCc1ccc(C(C)NC(=O)Cc2ccc(C)s2)cc1 (stereo not drawn) | inconclusive: 5.01 µM [inhibitor, full curve, poor fit]
COc1cccc(-c2ccc3c(c2)N(Cc2ccc(F)cc2)C(=O)C(C)S3)c1 (stereo not drawn) | inconclusive: 100 µM [inhibitor, single point]
Cc1cc(C)nc(SCC(=O)Nc2ccc(S(=O)(=O)Nc3ncccn3)cc2)n1 | inactive
O=C(O)CC(NC(=O)C12CC3CC(CC(C3)C1)C2)c1ccc(OC2CCCC2)cc1 (stereo not drawn) | inconclusive: 0.141 µM [inhibitor, full curve, poor fit]
